Laboratory results taken from paper PMC6375841.
No constants are given. Whether binding was seen depends on the method and setting. In cells and extracts the contact can be indirect. Some entries that bind do so weakly or less than the wild type.

By UniProt entry, the sequences of proteins in these tests, tags left out. Where a name states a change or a piece, a line headed by the entry shows the natural chain unless it says otherwise. Residues count along the entry.
UniProt Q16620, residues 32-430: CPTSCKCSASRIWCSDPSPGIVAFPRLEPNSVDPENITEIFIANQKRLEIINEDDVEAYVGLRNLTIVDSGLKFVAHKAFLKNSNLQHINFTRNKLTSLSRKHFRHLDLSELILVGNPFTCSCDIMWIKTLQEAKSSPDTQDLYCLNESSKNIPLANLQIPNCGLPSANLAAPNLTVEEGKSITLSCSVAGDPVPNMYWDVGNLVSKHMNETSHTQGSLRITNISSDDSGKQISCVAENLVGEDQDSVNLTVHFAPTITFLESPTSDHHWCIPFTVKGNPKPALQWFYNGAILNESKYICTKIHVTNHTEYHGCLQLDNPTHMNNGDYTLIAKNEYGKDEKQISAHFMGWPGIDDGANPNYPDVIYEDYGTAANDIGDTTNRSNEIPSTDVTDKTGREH
UniProt P07174, residues 30-425: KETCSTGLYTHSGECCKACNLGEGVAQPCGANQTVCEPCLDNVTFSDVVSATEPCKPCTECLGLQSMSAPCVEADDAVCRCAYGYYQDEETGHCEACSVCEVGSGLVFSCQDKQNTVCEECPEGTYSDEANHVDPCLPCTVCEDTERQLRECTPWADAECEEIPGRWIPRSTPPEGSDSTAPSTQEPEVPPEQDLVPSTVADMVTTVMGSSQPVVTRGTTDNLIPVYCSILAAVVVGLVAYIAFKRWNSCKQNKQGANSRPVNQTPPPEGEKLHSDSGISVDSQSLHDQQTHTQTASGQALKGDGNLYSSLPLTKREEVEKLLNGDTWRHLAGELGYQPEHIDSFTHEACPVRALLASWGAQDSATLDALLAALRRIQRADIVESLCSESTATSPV

T1: proBDNF (rat (endogenous in hippocampal neuron cultures and hippocampus)) (UniProt P23363)
T1 sequence: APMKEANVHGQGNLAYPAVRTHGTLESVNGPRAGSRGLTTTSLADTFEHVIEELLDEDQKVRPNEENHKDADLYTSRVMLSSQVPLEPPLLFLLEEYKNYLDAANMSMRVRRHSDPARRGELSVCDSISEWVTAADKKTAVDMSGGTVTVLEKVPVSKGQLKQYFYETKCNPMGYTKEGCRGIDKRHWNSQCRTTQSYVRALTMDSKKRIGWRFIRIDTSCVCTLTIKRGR

B1: proBDNF (protein, UniProt P23363 19-249)
chain: T1 sequence

What was measured:
[1] = target: T1, proBDNF (rat (endogenous in hippocampal neuron cultures and hippocampus)); experiment: co-IP; hippocampus homogenates (modified RIPA buffer, 500 μg total protein) immunoprecipitated with 2 μg anti-proBDNF antibody at 4°C overnight, Protein A/G PLUS-agarose; Western blot with anti-p75NTR; control and SE animals, TrkB-Fc-infused (ipsilateral) and non-infused (contralateral) sides
[2] = target: recombinant human TrkB-Fc chimera protein (human) (UniProt Q16620); experiment: condition: 2 μg TrkB-Fc with 500 μg of total protein; co-IP; homogenates of control and SE hippocampus (500 μg total protein, modified RIPA buffer, pre-cleared) mixed with 2 μg TrkB-Fc at 4°C overnight, TrkB-Fc precipitated with Protein A/G PLUS-agarose; Western blots probed for matBDNF and proBDNF; only the target purified

Molecule | binding [1] | binding [2]
p75 NT receptor (p75NTR) (from UniProt P07174 30-425) | binds | –
B1 | – | no binding
